PubChem BioAssay AID1259308 – NCATS, 2017
Shown is one part, drawn at random, of about 59,000 reagents. About 1,510 of all reagents (2.6%) were called active. 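Calls use total luciferase alone and ignore viability, so some active siRNAs may act by altering cell number.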 The numbers tell different reagents against one gene apart. Reagent sequences are not shown.

Screen: 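Genes whose loss raises luciferase production in HEK293 cells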 (primary screen)
Cells: human HEK293 embryonic kidney cells stably expressing firefly luciferase (HEK-CMV-Luc2-Hygro)
Knock-down reagent: single siRNA against human genes, 0.8 pmol siRNA per well
Time to read-out: 72 h
Measurement: 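Luciferase light (ONE-Glo) measured on one replicate plate set and viability (CellTiter-Glo) on the other, scaled to a negative control siRNA, with robust z-scores and luciferase per cell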
Direction: total luciferase, z-score and total luciferase, % of control: higher = more reporter protein produced; luciferase per cell, z-score: higher = more reporter output per viable cell; viable cells, % of control: higher = more viable cells
Hit rule: 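An siRNA counts as active if its total luciferase robust z-score exceeds 3; genes with two or more such siRNAs out of three were retested with fresh siRNAs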
Meaning of the calls: active = raised luciferase; inactive = no rise

The opening 7 records, to show the layout:
Target gene	siRNA no.	total luciferase, z-score	total luciferase, % of control	luciferase per cell, z-score	viable cells, % of control	Call
SMIM29 (small integral membrane protein 29)	1	-0.489	72.2	-0.215	85.3	inactive
SMIM29 (small integral membrane protein 29)	2	-1.35	54.9	-0.598	71.9	inactive
SMIM29 (small integral membrane protein 29)	3	0.813	98	0.456	97.2	inactive
MGAT4EP (MGAT4 family member E, pseudogene)	1	-0.648	69	-0.804	95.3	inactive
MGAT4EP (MGAT4 family member E, pseudogene)	2	0.427	90.4	1.11	75.5	inactive
MGAT4EP (MGAT4 family member E, pseudogene)	3	1.44	110	1.71	78.6	inactive
TRIM49 (tripartite motif containing 49)	1	-0.581	70.3	-0.319	85.5	inactive

The list itself, repeating the preview:
Target gene	siRNA no.	total luciferase, z-score	total luciferase, % of control	luciferase per cell, z-score	viable cells, % of control	Call
SMIM29 (small integral membrane protein 29)	1	-0.489	72.2	-0.215	85.3	inactive
SMIM29 (small integral membrane protein 29)	2	-1.35	54.9	-0.598	71.9	inactive
SMIM29 (small integral membrane protein 29)	3	0.813	98	0.456	97.2	inactive
MGAT4EP (MGAT4 family member E, pseudogene)	1	-0.648	69	-0.804	95.3	inactive
MGAT4EP (MGAT4 family member E, pseudogene)	2	0.427	90.4	1.11	75.5	inactive
MGAT4EP (MGAT4 family member E, pseudogene)	3	1.44	110	1.71	78.6	inactive
TRIM49 (tripartite motif containing 49)	1	-0.581	70.3	-0.319	85.5	inactive
TRIM49 (tripartite motif containing 49)	2	-0.912	63.8	-0.986	92.4	inactive
TRIM49 (tripartite motif containing 49)	3	-0.185	78.2	0.21	82.7	inactive
OR9I1 (olfactory receptor family 9 subfamily I member 1)	1	-0.937	63.3	-0.275	76	inactive
OR9I1 (olfactory receptor family 9 subfamily I member 1)	2	2.69	135	3.47	60.6	inactive
OR9I1 (olfactory receptor family 9 subfamily I member 1)	3	0.102	83.9	-0.34	103	inactive
RPS17P16 (ribosomal protein S17 pseudogene 16)	1	-2.78	26.6	-2.34	55.2	inactive
RPS17P16 (ribosomal protein S17 pseudogene 16)	2	0.0615	83.1	-0.922	118	inactive
RPS17P16 (ribosomal protein S17 pseudogene 16)	3	-2.71	28	-2.48	60.1	inactive
ZNF445 (zinc finger protein 445)	1	-0.103	79.8	-0.327	97.2	inactive
ZNF445 (zinc finger protein 445)	2	-2.01	42	-1.74	74.2	inactive
ZNF445 (zinc finger protein 445)	3	-1.28	56.3	-1.1	84.2	inactive
TXNDC15 (thioredoxin domain containing 15)	1	-0.388	74.2	-0.502	94.6	inactive
TXNDC15 (thioredoxin domain containing 15)	2	0.167	85.2	0.501	83.5	inactive
TXNDC15 (thioredoxin domain containing 15)	3	-0.237	77.2	-0.415	96.2	inactive
CDC42EP1 (CDC42 effector protein 1)	1	-0.0644	80.6	0.349	82.2	inactive
CDC42EP1 (CDC42 effector protein 1)	2	0.416	90.2	0.2	95.6	inactive
CDC42EP1 (CDC42 effector protein 1)	3	2.65	135	2.09	86.6	inactive
PTPRJ (protein tyrosine phosphatase receptor type J)	1	-0.661	68.7	-0.64	90.9	inactive
PTPRJ (protein tyrosine phosphatase receptor type J)	2	0.266	87.2	0.0334	96.6	inactive
PTPRJ (protein tyrosine phosphatase receptor type J)	3	1.27	107	2.12	68.5	inactive
ULBP3 (UL16 binding protein 3)	1	-0.825	65.5	-0.485	83.1	inactive
ULBP3 (UL16 binding protein 3)	2	0.197	85.8	0.23	90.2	inactive
ULBP3 (UL16 binding protein 3)	3	-0.395	74	-0.118	85.3	inactive
SCGB3A2 (secretoglobin family 3A member 2)	1	-0.536	71.2	-1.14	108	inactive
SCGB3A2 (secretoglobin family 3A member 2)	2	-0.299	75.9	-0.453	95.6	inactive
SCGB3A2 (secretoglobin family 3A member 2)	3	1.66	115	0.353	117	inactive
H2AC12 (H2A clustered histone 12)	1	-0.308	75.8	0.642	71.5	inactive
H2AC12 (H2A clustered histone 12)	2	2.25	127	2.64	70.6	inactive
H2AC12 (H2A clustered histone 12)	3	-0.782	66.3	-0.914	94.3	inactive
WDR75 (WD repeat domain 75)	1	-0.364	74.6	0.148	80.2	inactive
WDR75 (WD repeat domain 75)	2	-0.956	62.9	-1.07	93.1	inactive
WDR75 (WD repeat domain 75)	3	-1.38	54.5	-0.961	78.4	inactive
INTS14 (integrator complex subunit 14)	1	0.9	99.8	1.29	79.5	inactive
INTS14 (integrator complex subunit 14)	2	2.01	122	1.13	101	inactive
INTS14 (integrator complex subunit 14)	3	-0.493	72.1	-0.766	98.5	inactive
LIAS (lipoic acid synthetase)	1	-1.94	43.2	-1.27	67.5	inactive
LIAS (lipoic acid synthetase)	2	-0.891	64.2	0.0469	70.8	inactive
LIAS (lipoic acid synthetase)	3	-2.42	33.8	-1.59	57.4	inactive
ZXDB (zinc finger X-linked duplicated B)	1	-0.928	63.4	-1.22	97.6	inactive
ZXDB (zinc finger X-linked duplicated B)	2	0.723	96.3	0.294	99.6	inactive
ZXDB (zinc finger X-linked duplicated B)	3	0.849	98.8	-0.047	112	inactive
CAPRIN1 (cell cycle associated protein 1)	1	0.314	88.1	0.268	91.8	inactive
CAPRIN1 (cell cycle associated protein 1)	2	-0.444	73	-0.281	87.9	inactive
CAPRIN1 (cell cycle associated protein 1)	3	2.78	137	1.18	112	inactive
ATN1 (atrophin 1)	1	0.904	99.9	0.279	104	inactive
ATN1 (atrophin 1)	2	2.05	123	1.45	93.6	inactive
ATN1 (atrophin 1)	3	-0.446	73	-0.0267	82.2	inactive
RASEF (RAS and EF-hand domain containing)	1	0.518	92.2	0.493	90.5	inactive
RASEF (RAS and EF-hand domain containing)	2	1.48	111	1.16	91.8	inactive
RASEF (RAS and EF-hand domain containing)	3	-1.31	55.8	-1.25	86.7	inactive
